{
  "source": "paper PMC6748671",
  "about": "“Distribution of Small Molecular Weight Drugs into the Porcine Lens: Studies on Imaging Mass Spectrometry, Partition Coefficients, and Implications in Ocular Pharmacokinetics” (Molecular Pharmaceutics, 2019)",
  "key": {"[1]": {"conditions": "cited from earlier work"}, "[2]": {"experiment": "Drug distribution in the porcine lens by MALDI-IMS", "conditions": "4 h, posterior surface (thickness 1 mm), from ratio to d5-atropine signal", "experimental": "After 4 h, the buffer was removed from the vials and the lenses were rinsed with HBSS–HEPES and gently blotted dry. The lenses were weighed, snap-frozen with liquid nitrogen in flat-bottomed plastic tubes, and then stored at −80 °C until sample preparation and analysis with MALDI-IMS. For the experiment, a smaller set of 16 drugs was used.\nThe frozen lenses were mounted onto a chuck using an optimal cutting temperature compound (Sakura Finetek, CA, USA) on the equatorial side. The lenses were sectioned to 10 μm thickness at −20 °C on a Leica CM Cryostat (S3050, Leica Microsystems GmbH, Germany), equipped with a FEATHER Microtome C35 blade (pfm medical, UK), and collected on a cryofilm (3C16UF, SECTION-LAB Co. Ltd. Yokohama, Japan) by modified Kawamoto method.[23] The film was subsequently mounted onto a microscopy glass slide using a double-sided copper tape. The slides were washed twice with 50 mM ammonium formate for 30 s and dried in a vacuum desiccator. The sample slides contained three lens sections from the drug mixture experiment and three blanks. […]\nThe drugs were identified as their [M + H]^+ ions. […] MALDI images for each detected compound were plotted using a 0.01 μ mass window. […]"}},
  "data": [
    {"compound": "CN1[C@@H]2CC[C@H]1C[C@@H](OC(=O)C(CO)c1ccccc1)C2", "note": "(some centres unmarked) [atropine]", "values": [
      {"measurement": "concentration in the lens in vivo compared with aqueous humor, iris and ciliary body", "setting": "[1]", "value": "much lower"},
      {"measurement": "estimated concentration in lens posterior surface", "setting": "[2]", "value": "~3.4", "unit": "µg/g"}
    ]}
  ]
}
